Data from PubChem BioAssay AID1671190 (National Center for Advancing Translational Sciences (NCATS), 2021).
About 6,100 (1.1%) of roughly 580,000 compounds were called active. The shares of active, inactive and inconclusive entries below differ from those in the screen. Calls follow the shape of the dose curve; as a rule, active = well fitted inhibition curve with a large enough effect; inconclusive = small, poorly fitted or top-dose-only effect, or another doubt; inactive = no such curve, though single readings can be large or run the other way. Where the call is inconclusive, the potency comes from a doubtful curve fit.

Sequences of proteins named here, by UniProt entry; tags and fusion partners are left off. A change or cut given only in a name is not applied to a line headed by its entry.
UniProt P18054: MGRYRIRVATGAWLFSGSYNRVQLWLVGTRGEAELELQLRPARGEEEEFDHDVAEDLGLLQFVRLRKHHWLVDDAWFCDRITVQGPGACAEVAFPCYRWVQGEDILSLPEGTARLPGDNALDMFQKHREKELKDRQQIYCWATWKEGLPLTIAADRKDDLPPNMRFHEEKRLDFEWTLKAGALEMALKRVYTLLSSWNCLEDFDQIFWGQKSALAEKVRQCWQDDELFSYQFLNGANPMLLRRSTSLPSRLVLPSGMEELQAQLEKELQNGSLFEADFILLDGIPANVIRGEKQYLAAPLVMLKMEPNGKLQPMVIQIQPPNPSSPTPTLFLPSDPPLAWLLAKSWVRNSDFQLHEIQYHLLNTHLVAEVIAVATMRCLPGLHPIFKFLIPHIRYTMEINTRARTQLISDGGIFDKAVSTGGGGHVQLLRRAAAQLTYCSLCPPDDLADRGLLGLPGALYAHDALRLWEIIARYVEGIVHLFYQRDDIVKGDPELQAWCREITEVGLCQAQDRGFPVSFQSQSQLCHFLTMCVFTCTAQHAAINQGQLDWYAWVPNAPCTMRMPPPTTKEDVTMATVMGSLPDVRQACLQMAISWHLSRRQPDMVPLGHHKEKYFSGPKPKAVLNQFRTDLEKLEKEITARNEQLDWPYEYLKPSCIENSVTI

target: Polyunsaturated fatty acid lipoxygenase ALOX12 (Homo sapiens) (UniProt P18054); experiment: Primary qHTS assay for inhibitors of human arachidonate 12S-lipoxygenase (ALOX12): Round 2; details: purified 12hLO, xylenol orange hydroperoxide absorbance; activity change, negative = inhibition: at 108 µM (top of the series) unless noted
Procedure, shortened: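 Hydroperoxide product was detected by ferrous iron/xylenol orange as the 573 to 405 nm absorbance ratio. Arachidonic acid at 40 uM (final) was turned over for 30 min at room temperature by 150 nM human 12hLO, pH 7.0 Hepes buffer, after 15 min compound preincubation.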
% is scaled to controls: 0 for no effect and ±100 for the full control effect; potency is read from the fitted curve at half-maximal effect.

Row | SMILES | activity change, negative = inhibition | Potency
1 | CN1C(=O)C2(CCN(C(=O)C3(c4ccccc4)CC3)CC2)c2ccccc21 | inactive: 34.1% | 
2 | O=S(=O)(N1CCOCC1)N1CCOC(CCCc2ccccc2)C1 (centres undefined) |  | inconclusive: 70.8 µM [inhibitor, single point]
3 | O=C1c2cccc(Cl)c2C(=O)N1c1ccccn1 | inactive: 10.7% | 
4 | O=C(CSc1nnnn1-c1ccccc1)N(Cc1ccco1)C1=CCCCC1 | inactive: 14.4% | 
5 | Cc1ccc(Nc2nc(N)nc(CN3CCN(c4ccccc4F)CC3)n2)cc1 |  | inconclusive: 35.5 µM [inhibitor, partial curve, poor fit]
6 | CC(=O)Nc1ccc(C(=O)CSc2nnc(-c3ccccc3)n2-c2ccccc2)cc1 | inactive: 0% | 
7 | O=C(CCc1c[nH]c2ccccc12)N1CCCC1CN1CCCC1 (centres undefined) | inactive: -0.113% | 
8 | O=C(O)C1CC(=O)n2c(nc3ccccc32)S1 (centres undefined) |  | inconclusive: 39.8 µM [inhibitor, partial curve, poor fit]
9 | CC1(C)OC2C(CO)OC(n3cnc4c(=S)nc[nH]c43)C2O1 (centres undefined) |  | inconclusive: 1 µM [inhibitor, full curve, poor fit]
10 | Cc1ccc(NC(=O)c2cc(C(C)(C)C)nn2Cc2ccccc2)cc1 | inactive: 11.4% | 
11 | CCc1ccc(C(=O)Nc2sc(C)c(C)c2C#N)s1 |  | inconclusive: 28.2 µM [inhibitor, partial curve]
12 | COc1ccc(C(=O)Nc2ccc(NS(=O)(=O)c3ccc4c(c3)OCCCO4)cc2)cc1 |  | inconclusive: 44.7 µM [inhibitor, partial curve]
13 | Cc1ccc(-c2cc(C(=O)NCc3cnn(C)c3C)c3cc(Br)ccc3n2)cc1 |  | inconclusive: 56.2 µM [inhibitor, partial curve, poor fit]
14 | CC(C)(C)c1ccc(/C=N/Nc2ccc(Cl)c(Cl)c2)cc1 |  | inconclusive: 4.47 µM [inhibitor, full curve, poor fit]
15 | Cc1cccc(C)c1NC(=O)CSC(=O)c1sc2ccccc2c1Cl |  | inconclusive: 112 µM [inhibitor, single point]
16 | Brc1ccc2nc(C3CCCCC3)c(CC3CCCCC3)n2c1 |  | inconclusive: 39.8 µM [inhibitor, partial curve, poor fit]
17 | COc1ccc2nc(NC(=S)NC(=O)c3ccco3)sc2c1 | inactive: -10.2% | 
18 | CCCCCCCCCCCCCCCC[N+](C)(C)CCN(Cc1ccc(OC)cc1)c1ncccn1 |  | inconclusive: 10.2 µM [inhibitor, partial curve]
19 | Cc1cccc(C)c1NC(=O)CCCn1nc(C)c2c(C)n(-c3ccccc3)nc2c1=O |  | inconclusive: 56.2 µM [inhibitor, partial curve, poor fit]

Given with tabs: part of the list above
Row	SMILES	activity change, negative = inhibition	Potency
11	CCc1ccc(C(=O)Nc2sc(C)c(C)c2C#N)s1		inconclusive: 28.2 µM [inhibitor, partial curve]
12	COc1ccc(C(=O)Nc2ccc(NS(=O)(=O)c3ccc4c(c3)OCCCO4)cc2)cc1		inconclusive: 44.7 µM [inhibitor, partial curve]
